## Screening data

Data taken from PubChem BioAssay AID1224904, deposited by Broad Institute (2016).

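293T-iDUX4 dual-reporter cells; luminescence of the tet-on Italica luciferase control is read after 24 h.
The test concentration is not given here.
Percent change in the Italica control signal; more negative values mean stronger inhibition, which points to nonspecific, tet-on or cytotoxic effects.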

Values are in %.
Common to all entries: measured here: Italica tet-on control reporter.
Part of the compounds only, not a random draw; the main read-out is not listed here.

With COc1ccc2c3c([nH]c2c1)[C@@H](CO)N(C(=O)c1ccccc1)CC31CCN(C(=O)c2cccc(F)c2)CC1 the assay gave activity change 3.194%. With C[C@@H]1CN([C@@H](C)CO)C(=O)c2ccccc2-c2ccccc2CO[C@@H]1CN(C)S(=O)(=O)c1cccc(F)c1 the assay gave activity change -6.909%. CCCN1C[C@@H](C)[C@H](OC)CN(C)C(=O)c2cc(NC(=O)Nc3cccc(F)c3)ccc2OC[C@@H]1C read activity change -7.253%. O=C(Nc1ccc(C(F)(F)F)cc1)Nc1ccc2c(c1)[C@@H]1C[C@@H](CC(=O)N3CCc4ccccc4C3)O[C@H](CO)[C@@H]1O2 gave activity change -68.19%.

COc1ccc2c3c([nH]c2c1)[C@@H](CO)N(C(=O)C1CCC1)CC31CN(Cc2cccc(F)c2)C1 read activity change -16.72%. For O=C(C1CCOCC1)N1CC(=O)N2[C@H](C1)[C@@H](c1ccc(C#Cc3cccc(F)c3)cc1)[C@@H]2CO the result was activity change -6.995%. With CO[C@H]1CN(C)C(=O)c2ccc(NC(=O)C3CCC3)cc2OC[C@@H](C)N(Cc2ccncc2)C[C@H]1C the assay gave activity change -8.123%. For N#C[C@@H]1[C@H](c2ccccc2-c2cccc(F)c2)[C@H](CO)N1C(=O)C1CCCCC1 the result was activity change -10.22%.

For Cc1cccc(-c2ccc(C3[C@@H]4CN(Cc5ccccc5)C[C@H]3N4)cc2)c1 (stereo partly shown) the result was activity change 2.852%. Result for C[C@H](CO)N1C[C@H](C)[C@@H](CN(C)Cc2cccc(F)c2)OCc2ccccc2-c2c(n(C)c3ccccc23)C1=O was activity change -16.71%. With COc1ccc(-c2ccc(C3[C@@H]4CN(Cc5ccccn5)C[C@H]3N4)cc2)cc1 (stereo partly shown) the assay gave activity change -1.752%. Cc1ccccc1S(=O)(=O)N1CCCCN2[C@H](C1)[C@H](c1ccc(C#CCN(C)C)cc1)[C@@H]2CO gave activity change 3.428%.

With O=C(C[C@H]1CC[C@H]2[C@@H](COC[C@H](O)CN2Cc2cccc(-c3ccncc3)c2)O1)N1CCN(c2ccccc2)CC1 the assay gave activity change -63.21%. COc1ccc(C#Cc2ccc([C@@H]3[C@H](CO)N4CCCCN(C(=O)c5ccncc5)C[C@@H]34)cc2)cc1 gave activity change -16.48%. For OC[C@@H]1[C@@H](c2ccccc2)C2(CN(CCC(F)(F)F)C2)N1Cc1ccccc1 the result was activity change -16.47%. For N#C[C@@H]1[C@@H](c2ccccc2C2=CCCC2)[C@H](CO)N1C(=O)C1CCC1 the result was activity change -8.694%.

For CN1c2ccc(-c3cccc(F)c3)cc2[C@@H]2[C@@H](CCN2C(=O)c2ccc3c(c2)OCO3)[C@@H]1CO the result was activity change -30.12%. Cc1ccc(S(=O)(=O)N[C@H]2C=C[C@H](CC(=O)NCc3ccc(Cl)c(Cl)c3)O[C@H]2CO)cc1 read activity change -11.73%. With COc1ccc2c3c([nH]c2c1)[C@H](CO)N(C(=O)c1ccccc1)CC31CCN(C(=O)Nc2cccc(F)c2)CC1 the assay gave activity change -18.57%. With O=C(C[C@H]1C=C[C@H](NC(=O)c2ccncc2)[C@@H](CO)O1)NCC1CC1 the assay gave activity change 3.135%.

With CO[C@@H]1CN(C)C(=O)c2ccc(NC(=O)c3cccc(Oc4ccccc4)c3)cc2OC[C@@H](C)NC[C@H]1C the assay gave activity change -35.98%. With COc1cccc(S(=O)(=O)N2CCCCN3[C@H](C2)[C@@H](c2ccc(C#CCC(C)C)cc2)[C@@H]3CO)c1 the assay gave activity change -3.804%. With COc1ccc(C#Cc2ccc3c(c2)[C@H]2[C@H](CCN2C(=O)c2ccccn2)[C@H](CO)N3)cc1 the assay gave activity change 7.655%. Result for COc1ccc2c3c([nH]c2c1)[C@H](CO)N(Cc1cccc(F)c1)CC31CCN(C(C)=O)CC1 was activity change -41.77%.

For CC(C)NC(=O)N1CCCCN2[C@H](CO)[C@H](c3ccc(C#Cc4ccccc4F)cc3)[C@H]2C1 the result was activity change -38.28%. O=C(C1CCCCC1)N1CC2(C1)[C@@H](c1ccccc1)[C@@H](CO)N2CCC(F)(F)F gave activity change 3.844%. Result for C[C@@H]1CN([C@H](C)CO)C(=O)c2c(c3ccccc3n2C)-c2ccccc2CO[C@@H]1CN(C)C(=O)[C@H](Cc1ccccc1)N(C)C was activity change -23.71%. Cc1cccc(-c2ccc(C3[C@@H]4CN(Cc5ccccc5F)C[C@H]3N4)cc2)c1 (stereo partly shown) read activity change -1.466%.

Result for N#C[C@H]1[C@@H](c2ccccc2-c2ccc(F)cc2)[C@@H](CO)N1C(=O)Cc1ccccc1 was activity change -11.14%. Result for COc1ccc2c3c([nH]c2c1)[C@@H](CO)N(C(=O)c1ccccc1)CC31CCN(C(=O)Nc2cccc(F)c2)CC1 was activity change -7.771%. O=C(C[C@H]1C[C@@H]2c3cc(NS(=O)(=O)c4ccc(F)cc4)ccc3O[C@@H]2[C@@H](CO)O1)NCc1ccc(Oc2ccccc2)cc1 gave activity change -96.91%. Result for OC[C@@H]1[C@@H](c2ccccc2)C2(CN(Cc3ccc4c(c3)OCO4)C2)N1Cc1ccccc1 was activity change -68.75%.

CC(C)CC#Cc1ccc([C@@H]2[C@H](CO)N3C(=O)CN(C(=O)NC4CCCCC4)C[C@@H]23)cc1 read activity change -42.8%. C[C@H](CO)N1C[C@H](C)[C@H](CN(C)Cc2ccc(C(F)(F)F)cc2)OCc2ccccc2-c2c(n(C)c3ccccc23)C1=O read activity change -70.96%. Result for O=C(Nc1ccc2c(c1)[C@H]1C[C@H](CC(=O)N3CCc4ccccc4C3)O[C@@H](CO)[C@H]1O2)c1ccc2c(c1)OCO2 was activity change -12.68%. Result for C[C@@H]1CN([C@@H](C)CO)C(=O)c2c(c3ccccc3n2C)-c2ccccc2CO[C@@H]1CN(C)CC1CCCCC1 was activity change -3.746%.

For O=C(c1cccc(F)c1)N1CC[C@@H]2[C@@H](CO)Nc3ccc(-c4ccccc4F)cc3[C@@H]21 the result was activity change -18.22%. O=C(Nc1ccccc1)N1C[C@@H]2N[C@H](C1)C2c1ccc(-c2ccccc2)cc1 (stereo partly shown) gave activity change -76.5%. With N#Cc1cccc(-c2ccc([C@H]3[C@@H](CO)N4CCCCN(S(=O)(=O)c5ccccc5)C[C@H]34)cc2)c1 the assay gave activity change -16.49%. For O=C(C[C@@H]1CC[C@H]2[C@@H](COC[C@@H](O)CN2CC2CCCCC2)O1)NCc1ccc(Cl)cc1 the result was activity change -22.51%.

COc1ccccc1CN1C[C@@H]2N[C@H](C1)C2c1ccc(-c2ccc(C#N)cc2)cc1 (stereo partly shown) read activity change -97.71%. O=S(=O)(c1ccccc1)N1CC2(C1)[C@H](c1ccccc1)[C@@H](CO)N2CC1CCCC1 gave activity change -22.48%. Result for O=C(Cc1ccncc1)N1CC[C@@H]2[C@H]1c1cc(-c3cccc(F)c3)ccc1N[C@@H]2CO was activity change 1.532%.

4 of the entries, repeated:

- COc1ccc2c3c([nH]c2c1)[C@@H](CO)N(C(=O)c1ccccc1)CC31CCN(C(=O)Nc2cccc(F)c2)CC1 | activity change -7.771%
- Cc1ccc(S(=O)(=O)N[C@H]2C=C[C@H](CC(=O)NCc3ccc(Cl)c(Cl)c3)O[C@H]2CO)cc1 | activity change -11.73%
- Cc1cccc(-c2ccc(C3[C@@H]4CN(Cc5ccccc5)C[C@H]3N4)cc2)c1 (stereo partly shown) | activity change 2.852%
- O=C(C1CCCCC1)N1CC2(C1)[C@@H](c1ccccc1)[C@@H](CO)N2CCC(F)(F)F | activity change 3.844%